Results reported in paper PMC3781053.
No constants are given. Whether binding was seen depends on the method and setting. In cells and extracts the contact can be indirect. Some entries that bind do so weakly or less than the wild type.

Protein sequences, listed by entry. Tags and fused reporters are not part of them. Lines headed by an entry give the natural chain unless they say otherwise; changes in a name come on top. Residues count along the entry.
UniProt P04275, residues 23-2813: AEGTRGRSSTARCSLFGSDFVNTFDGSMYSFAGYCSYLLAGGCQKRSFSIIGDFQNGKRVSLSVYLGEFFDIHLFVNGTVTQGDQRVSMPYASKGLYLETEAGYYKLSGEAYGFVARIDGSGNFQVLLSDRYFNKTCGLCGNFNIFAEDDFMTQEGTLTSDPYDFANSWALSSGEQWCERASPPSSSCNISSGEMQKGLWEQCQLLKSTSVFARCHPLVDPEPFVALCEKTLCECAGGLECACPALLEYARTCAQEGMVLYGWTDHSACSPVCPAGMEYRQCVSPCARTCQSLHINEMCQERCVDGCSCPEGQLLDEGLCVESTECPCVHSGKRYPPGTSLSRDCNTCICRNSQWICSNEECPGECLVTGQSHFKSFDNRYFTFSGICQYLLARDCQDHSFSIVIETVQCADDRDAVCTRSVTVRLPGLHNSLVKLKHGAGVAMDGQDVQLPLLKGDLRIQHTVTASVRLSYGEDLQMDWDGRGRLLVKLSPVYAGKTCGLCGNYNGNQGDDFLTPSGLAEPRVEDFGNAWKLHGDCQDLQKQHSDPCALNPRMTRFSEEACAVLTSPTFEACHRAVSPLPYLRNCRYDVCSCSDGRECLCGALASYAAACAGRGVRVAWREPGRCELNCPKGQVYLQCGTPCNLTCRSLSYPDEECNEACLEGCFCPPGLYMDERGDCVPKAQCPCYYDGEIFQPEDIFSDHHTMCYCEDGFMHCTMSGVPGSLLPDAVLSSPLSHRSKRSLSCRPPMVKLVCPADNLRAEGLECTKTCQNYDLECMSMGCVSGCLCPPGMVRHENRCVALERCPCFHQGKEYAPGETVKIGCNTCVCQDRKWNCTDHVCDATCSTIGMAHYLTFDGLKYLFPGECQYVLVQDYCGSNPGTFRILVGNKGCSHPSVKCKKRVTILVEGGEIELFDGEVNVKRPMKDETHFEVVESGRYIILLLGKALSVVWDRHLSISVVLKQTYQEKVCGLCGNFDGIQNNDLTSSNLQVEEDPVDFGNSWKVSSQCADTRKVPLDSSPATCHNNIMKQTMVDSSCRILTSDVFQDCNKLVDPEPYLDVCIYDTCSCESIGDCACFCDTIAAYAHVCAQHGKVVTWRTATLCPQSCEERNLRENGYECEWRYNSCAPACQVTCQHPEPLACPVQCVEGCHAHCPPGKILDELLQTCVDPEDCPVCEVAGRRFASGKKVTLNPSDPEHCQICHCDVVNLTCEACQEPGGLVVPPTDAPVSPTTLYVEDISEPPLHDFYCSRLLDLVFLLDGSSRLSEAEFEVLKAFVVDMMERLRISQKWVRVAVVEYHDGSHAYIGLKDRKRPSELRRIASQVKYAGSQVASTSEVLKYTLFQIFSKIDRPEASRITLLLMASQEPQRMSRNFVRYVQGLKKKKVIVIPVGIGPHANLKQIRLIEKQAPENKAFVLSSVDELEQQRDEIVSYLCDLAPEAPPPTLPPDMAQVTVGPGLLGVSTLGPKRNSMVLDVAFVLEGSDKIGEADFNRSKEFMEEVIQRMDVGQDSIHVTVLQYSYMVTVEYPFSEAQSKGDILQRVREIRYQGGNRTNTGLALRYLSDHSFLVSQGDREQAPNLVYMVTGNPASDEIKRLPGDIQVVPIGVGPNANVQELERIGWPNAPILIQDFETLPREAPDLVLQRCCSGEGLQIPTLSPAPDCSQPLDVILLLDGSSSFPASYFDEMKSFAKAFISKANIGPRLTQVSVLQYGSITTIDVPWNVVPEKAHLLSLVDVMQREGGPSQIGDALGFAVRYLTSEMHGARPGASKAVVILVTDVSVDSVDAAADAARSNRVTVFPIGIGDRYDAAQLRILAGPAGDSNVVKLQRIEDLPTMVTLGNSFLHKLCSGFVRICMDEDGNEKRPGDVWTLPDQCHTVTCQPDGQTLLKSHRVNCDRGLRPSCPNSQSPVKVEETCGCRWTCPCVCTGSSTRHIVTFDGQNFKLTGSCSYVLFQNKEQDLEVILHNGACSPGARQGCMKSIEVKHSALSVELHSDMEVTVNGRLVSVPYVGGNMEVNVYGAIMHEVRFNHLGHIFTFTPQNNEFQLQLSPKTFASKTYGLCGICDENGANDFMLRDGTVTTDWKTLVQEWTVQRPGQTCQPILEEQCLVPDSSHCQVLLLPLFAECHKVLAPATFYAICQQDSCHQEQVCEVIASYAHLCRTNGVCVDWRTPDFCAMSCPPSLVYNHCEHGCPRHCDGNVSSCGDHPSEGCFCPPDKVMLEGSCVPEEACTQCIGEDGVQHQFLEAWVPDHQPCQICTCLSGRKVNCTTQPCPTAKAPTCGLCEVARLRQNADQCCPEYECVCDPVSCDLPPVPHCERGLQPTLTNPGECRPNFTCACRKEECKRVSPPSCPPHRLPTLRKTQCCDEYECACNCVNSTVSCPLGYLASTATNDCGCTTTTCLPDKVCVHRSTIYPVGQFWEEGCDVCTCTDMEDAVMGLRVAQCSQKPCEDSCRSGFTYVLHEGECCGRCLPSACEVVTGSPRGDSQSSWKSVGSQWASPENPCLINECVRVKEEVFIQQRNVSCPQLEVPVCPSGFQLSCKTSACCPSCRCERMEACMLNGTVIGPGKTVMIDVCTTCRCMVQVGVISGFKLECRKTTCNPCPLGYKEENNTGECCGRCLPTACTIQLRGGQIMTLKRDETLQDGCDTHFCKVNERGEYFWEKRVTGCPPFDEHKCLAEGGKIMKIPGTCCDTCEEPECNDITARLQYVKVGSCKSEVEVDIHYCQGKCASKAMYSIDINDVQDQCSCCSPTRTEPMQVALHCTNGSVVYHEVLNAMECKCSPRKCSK
UniProt Q9UM47: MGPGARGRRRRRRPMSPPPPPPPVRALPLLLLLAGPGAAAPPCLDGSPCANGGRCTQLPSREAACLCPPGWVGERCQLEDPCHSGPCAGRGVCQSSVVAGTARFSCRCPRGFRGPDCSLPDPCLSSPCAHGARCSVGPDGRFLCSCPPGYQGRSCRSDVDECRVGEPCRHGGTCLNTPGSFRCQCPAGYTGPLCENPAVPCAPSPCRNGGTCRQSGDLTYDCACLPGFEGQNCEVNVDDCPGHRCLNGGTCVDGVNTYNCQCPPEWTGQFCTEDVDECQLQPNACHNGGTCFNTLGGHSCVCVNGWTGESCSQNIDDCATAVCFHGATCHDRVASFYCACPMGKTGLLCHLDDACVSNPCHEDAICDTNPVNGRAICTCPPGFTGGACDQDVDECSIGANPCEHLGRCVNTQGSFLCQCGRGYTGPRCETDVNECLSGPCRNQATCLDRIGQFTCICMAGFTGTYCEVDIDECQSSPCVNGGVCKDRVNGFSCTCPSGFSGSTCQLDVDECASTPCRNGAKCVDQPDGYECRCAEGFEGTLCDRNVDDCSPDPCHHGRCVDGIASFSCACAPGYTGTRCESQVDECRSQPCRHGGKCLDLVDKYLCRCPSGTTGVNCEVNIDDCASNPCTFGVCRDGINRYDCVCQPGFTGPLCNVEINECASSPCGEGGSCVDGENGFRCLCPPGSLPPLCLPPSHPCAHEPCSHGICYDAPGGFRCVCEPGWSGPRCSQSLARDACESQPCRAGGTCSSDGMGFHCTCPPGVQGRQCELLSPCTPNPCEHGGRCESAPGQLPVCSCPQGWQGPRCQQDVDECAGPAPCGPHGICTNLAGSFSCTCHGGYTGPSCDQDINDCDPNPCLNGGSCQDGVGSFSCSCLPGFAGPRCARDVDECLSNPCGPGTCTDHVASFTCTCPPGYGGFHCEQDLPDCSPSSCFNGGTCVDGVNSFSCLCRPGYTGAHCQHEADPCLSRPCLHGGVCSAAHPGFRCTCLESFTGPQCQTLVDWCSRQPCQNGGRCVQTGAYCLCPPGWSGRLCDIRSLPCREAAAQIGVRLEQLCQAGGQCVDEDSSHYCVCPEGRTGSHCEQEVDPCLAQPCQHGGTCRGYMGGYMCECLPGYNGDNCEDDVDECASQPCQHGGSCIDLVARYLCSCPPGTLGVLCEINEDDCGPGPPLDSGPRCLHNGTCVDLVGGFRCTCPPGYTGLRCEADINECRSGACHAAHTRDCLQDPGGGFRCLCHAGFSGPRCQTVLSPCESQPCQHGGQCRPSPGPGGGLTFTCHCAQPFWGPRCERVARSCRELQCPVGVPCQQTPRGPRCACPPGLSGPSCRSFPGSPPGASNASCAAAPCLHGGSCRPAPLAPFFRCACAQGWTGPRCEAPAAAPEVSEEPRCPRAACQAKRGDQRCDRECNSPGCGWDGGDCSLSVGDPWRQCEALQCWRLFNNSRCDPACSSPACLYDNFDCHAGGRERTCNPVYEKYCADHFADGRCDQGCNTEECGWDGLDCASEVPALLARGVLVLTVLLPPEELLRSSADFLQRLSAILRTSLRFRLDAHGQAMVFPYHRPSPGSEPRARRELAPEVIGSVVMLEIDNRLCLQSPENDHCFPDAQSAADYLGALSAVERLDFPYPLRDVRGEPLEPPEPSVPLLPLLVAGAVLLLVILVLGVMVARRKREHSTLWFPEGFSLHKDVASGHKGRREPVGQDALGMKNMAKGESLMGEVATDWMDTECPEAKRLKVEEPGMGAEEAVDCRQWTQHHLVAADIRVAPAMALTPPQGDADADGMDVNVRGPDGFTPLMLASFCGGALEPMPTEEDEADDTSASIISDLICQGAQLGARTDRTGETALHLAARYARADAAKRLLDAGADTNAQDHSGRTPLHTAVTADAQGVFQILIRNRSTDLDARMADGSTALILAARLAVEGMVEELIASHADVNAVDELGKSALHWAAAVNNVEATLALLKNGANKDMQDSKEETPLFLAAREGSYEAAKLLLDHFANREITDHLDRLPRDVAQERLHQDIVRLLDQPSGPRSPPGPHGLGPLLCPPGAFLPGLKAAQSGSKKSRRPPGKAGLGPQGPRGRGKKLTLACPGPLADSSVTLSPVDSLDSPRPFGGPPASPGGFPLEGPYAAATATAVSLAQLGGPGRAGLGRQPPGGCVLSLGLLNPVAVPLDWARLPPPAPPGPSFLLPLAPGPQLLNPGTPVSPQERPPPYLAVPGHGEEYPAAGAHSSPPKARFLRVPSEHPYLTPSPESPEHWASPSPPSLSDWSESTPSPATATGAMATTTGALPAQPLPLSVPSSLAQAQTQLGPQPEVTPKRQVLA
UniProt P78504, residues 34-1067: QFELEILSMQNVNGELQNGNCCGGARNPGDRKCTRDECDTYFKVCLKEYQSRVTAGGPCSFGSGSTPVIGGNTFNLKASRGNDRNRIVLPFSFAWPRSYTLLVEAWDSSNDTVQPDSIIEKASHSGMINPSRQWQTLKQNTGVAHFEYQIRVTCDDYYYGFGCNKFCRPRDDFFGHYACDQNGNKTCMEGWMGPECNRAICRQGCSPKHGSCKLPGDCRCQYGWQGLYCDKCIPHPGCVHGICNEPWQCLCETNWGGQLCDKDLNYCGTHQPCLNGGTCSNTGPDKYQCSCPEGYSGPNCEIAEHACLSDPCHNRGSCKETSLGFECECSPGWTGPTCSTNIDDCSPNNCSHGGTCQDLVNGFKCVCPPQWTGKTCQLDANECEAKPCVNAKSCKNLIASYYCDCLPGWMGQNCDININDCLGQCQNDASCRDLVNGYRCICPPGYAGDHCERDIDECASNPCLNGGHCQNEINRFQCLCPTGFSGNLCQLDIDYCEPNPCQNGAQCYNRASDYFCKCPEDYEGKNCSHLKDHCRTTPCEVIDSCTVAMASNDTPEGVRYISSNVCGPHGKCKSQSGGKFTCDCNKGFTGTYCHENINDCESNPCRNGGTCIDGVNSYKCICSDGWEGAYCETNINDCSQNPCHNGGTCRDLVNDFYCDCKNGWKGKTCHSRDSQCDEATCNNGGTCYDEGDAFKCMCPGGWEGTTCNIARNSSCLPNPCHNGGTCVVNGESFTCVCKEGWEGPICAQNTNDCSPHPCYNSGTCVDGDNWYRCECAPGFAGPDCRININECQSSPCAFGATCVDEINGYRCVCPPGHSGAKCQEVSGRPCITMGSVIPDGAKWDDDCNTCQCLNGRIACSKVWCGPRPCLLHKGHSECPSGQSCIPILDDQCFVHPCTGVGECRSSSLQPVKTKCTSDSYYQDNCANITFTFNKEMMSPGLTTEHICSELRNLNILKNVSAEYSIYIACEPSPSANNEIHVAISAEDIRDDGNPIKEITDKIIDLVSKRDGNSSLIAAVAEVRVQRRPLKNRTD

The substances below were run against full length, C-terminally myc-(His)6-tagged human vWF (human) (UniProt P04275) (assay: co-IP; 293A cells cotransfected with vWF and Notch or Jagged1 ectodomains or full length NOTCH3; lysates treated with monoclonal antibody and protein G-agarose at 4°C; immunoblot).

| Substance | binding |
| --- | --- |
| full length human NOTCH3 (from UniProt Q9UM47 40-2321) (receptor) | binds |
| human Notch2 ectodomain, V5-tagged (from UniProt Q04721 26-1677) (domain or fragment) | binds |
| human Notch4 ectodomain, V5-tagged (from UniProt Q99466 24-1447) (domain or fragment) | binds |
| human Notch3 ectodomain, HA-tagged (from UniProt Q9UM47 40-1643) (domain or fragment) | binds |
| human Jagged1 ectodomain, C-terminally tagged (from UniProt P78504 34-1067) (domain or fragment) | binds |
| human Notch1 ectodomain, V5-tagged (from UniProt P46531 19-1735) (domain or fragment) | binds |
